Results are given in words; binding and its absence hold for the method and conditions named. Binding seen in cells or lysates may run through a third protein. Some binding calls cover weakened binding; strength is not graded here.
Molecular target: Speckle-Type Poz Protein (SPOP) (human (endogenous in U2932)) (UniProt O43791)
Assay: co-IP; U2932 cells, endogenous proteins; precipitated with IgG or anti-SPOP antibody, detected by western blotting

Amino acid sequences for entries named in this document (tags omitted).
UniProt O43791: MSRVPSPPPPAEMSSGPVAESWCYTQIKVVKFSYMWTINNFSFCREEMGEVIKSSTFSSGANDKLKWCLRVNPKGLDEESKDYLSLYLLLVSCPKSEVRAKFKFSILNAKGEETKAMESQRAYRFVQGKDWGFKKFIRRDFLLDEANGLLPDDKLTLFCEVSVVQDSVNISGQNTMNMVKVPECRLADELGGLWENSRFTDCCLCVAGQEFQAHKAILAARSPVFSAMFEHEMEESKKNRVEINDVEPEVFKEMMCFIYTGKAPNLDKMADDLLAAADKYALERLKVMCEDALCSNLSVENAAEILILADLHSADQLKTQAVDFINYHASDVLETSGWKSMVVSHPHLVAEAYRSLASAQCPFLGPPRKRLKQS
UniProt Q13111: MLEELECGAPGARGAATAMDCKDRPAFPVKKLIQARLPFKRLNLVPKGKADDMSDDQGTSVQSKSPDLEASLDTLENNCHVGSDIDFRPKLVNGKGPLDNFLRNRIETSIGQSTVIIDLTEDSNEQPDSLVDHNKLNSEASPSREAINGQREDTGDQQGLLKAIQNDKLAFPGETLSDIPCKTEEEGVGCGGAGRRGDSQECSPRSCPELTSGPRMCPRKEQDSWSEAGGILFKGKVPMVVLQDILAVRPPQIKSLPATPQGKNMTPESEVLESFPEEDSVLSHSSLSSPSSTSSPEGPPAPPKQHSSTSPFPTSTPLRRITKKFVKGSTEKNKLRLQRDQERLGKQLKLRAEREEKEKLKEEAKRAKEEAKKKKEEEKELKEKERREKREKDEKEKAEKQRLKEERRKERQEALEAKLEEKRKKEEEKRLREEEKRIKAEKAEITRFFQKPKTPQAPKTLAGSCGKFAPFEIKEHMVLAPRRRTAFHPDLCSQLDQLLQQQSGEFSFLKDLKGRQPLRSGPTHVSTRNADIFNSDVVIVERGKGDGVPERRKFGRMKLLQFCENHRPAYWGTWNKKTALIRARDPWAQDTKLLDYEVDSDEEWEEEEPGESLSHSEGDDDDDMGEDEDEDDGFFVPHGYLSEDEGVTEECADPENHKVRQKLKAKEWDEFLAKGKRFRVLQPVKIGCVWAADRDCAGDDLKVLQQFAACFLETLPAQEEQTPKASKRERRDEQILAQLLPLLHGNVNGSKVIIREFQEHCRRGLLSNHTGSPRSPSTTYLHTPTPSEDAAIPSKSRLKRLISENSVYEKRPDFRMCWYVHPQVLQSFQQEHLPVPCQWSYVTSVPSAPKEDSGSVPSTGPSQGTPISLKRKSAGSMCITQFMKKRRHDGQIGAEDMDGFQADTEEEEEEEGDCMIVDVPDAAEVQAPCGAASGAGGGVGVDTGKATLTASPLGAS

binding: binds
Substance: CHAF1A (from UniProt Q13111 1-956)
